The source of these data is patent US20240044903A1 (KOZA NOVEL MATERIALS KOREA, published 2024).

No constants are given. Whether binding was seen depends on the method and setting. Some binding calls cover weakened binding; strength is not graded here.

The assay addresses T1, canine serum TK1 (dog).
T1 sequence: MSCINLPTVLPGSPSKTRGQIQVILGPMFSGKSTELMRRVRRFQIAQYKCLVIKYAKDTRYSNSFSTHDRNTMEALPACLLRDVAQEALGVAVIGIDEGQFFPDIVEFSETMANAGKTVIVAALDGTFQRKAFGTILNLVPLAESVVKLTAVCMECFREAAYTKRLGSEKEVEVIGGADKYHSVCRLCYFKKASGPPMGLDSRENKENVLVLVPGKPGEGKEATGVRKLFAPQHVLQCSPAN
In words: immunoprecipitation with anti-mouse IgG DYNABEADS from dog sera.

B1: CTK1-1 (mAb1) (antibody, mouse IgG1, kappa, V domains shown)
VH: EVKLVESGGGLVQPGDSLRLSCATSGFTFNDHYMNWVRQPPGKALEWVAFIGNKAYGYKIEYNSSVKGRFTISRDDSQSFLYLQLNTLRSEDSATYYCARDGAFIYWGQGTVVTVSA
VL: DVVMTQTPLSLPVSLGDQASISCRSSQSLVHSNGNTYLHWYLQKPGQSPKLLIYKVSNRFSGVPDRFSGSGSGSDFTLKISRVEAEDLGVYFCSQSTHIPYTFGGGTELEIRR
notes: Mouse monoclonal IgG1-kappa from hybridoma sub-clone 9C8, raised against the active site peptide (amino acids 161-183) of human TK1; also called 9C8
B1: the binding entry is reported as “binds”.
